In article doi:10.1101/613612:

Biological target: T1, PIP2a-2xStrep-FLAG (Arabidopsis thaliana) (UniProt P43286)
T1 sequence: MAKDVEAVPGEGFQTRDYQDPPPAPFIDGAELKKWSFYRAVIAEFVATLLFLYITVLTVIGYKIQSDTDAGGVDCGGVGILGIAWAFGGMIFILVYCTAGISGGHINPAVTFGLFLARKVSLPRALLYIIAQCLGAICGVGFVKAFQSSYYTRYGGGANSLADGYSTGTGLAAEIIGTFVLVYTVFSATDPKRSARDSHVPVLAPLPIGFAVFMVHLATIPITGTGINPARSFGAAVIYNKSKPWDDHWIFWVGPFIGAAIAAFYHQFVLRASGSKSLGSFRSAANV
Assay: affinity purification with mass spectrometry

- binding: no binding
Substance: NbPP2C6 (N. benthamiana (endogenous in leaves)) (enzyme)

Results are given in words; binding and its absence hold for the method and conditions named. In cells and extracts the contact can be indirect. Here binding means that the protein was enriched with, or labelled near, the bait; the list need not be complete. No binding means not detected with the bait. Where a sequence is shown, tags or fusion partners need not be part of it.
